In PubChem BioAssay AID2685 (National Center for Advancing Translational Sciences (NCATS), 2010):
This is one part of the list. Further columns of the screen follow, without active or inactive calls. The list favours compounds with an active or inconclusive main result. The note in brackets gives the kind of curve behind each potency; many fits are weak.

Test: qHTS Assay for Lipid Storage Modulators in Drosophila S3 Cells;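 for cell number change: cells counted by Cell Tracker Red CMTPX staining in the red channel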
Conditions: BODIPY lipid droplet fluorescence, 18-24 h; for cell number change: measured here: cell count max response, cells fed with added oleic acid
Outline: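 Drosophila S3 cells loaded with oleic acid (400 uM, as added) and compounds at several concentrations; lipid droplets imaged by 488-nm laser-scanning cytometry, 500–530 nm intensity and object ratio to cell channel. Percent activity normalized to 20 uM Triacsin C.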

[1] = measured here: cell number channel AC50, cells fed with added oleic acid
[2] = measured here: lipid fluorescence (Fed channel) AC50, cells fed with added oleic acid

Structure (SMILES) | cell number change | AC50 [1] | AC50 [2]
COc1ccc2c(c1)CCc1c(C(=O)N3CC4(C)CC3CC(C)(C)C4)noc1-2 (configuration not stated) | 46.7% | 29100 nM [rising, single point] | 103 nM [falling, partial curve, poor fit]
O=C(NNC(=O)c1cc(Br)c(Br)s1)c1ccncc1 | 6.36% | – | 1300 nM [rising, partial curve, poor fit]
Cc1ccccc1NC(=O)NNC(=O)CCc1ccccc1 | 13.4% | – | 29100 nM [rising, single point]
COc1ccc2oc(C(=O)OCC(=O)N(C)c3ccccc3)c(C)c2c1 | 43.1% | 16400 nM [rising, partial curve] | –
CC(=O)OC[C@H]1O[C@@H](Sc2cccc3cccnc23)[C@H](OC(C)=O)[C@@H](OC(C)=O)[C@H]1OC(C)=O | -2.63% | – | 29100 nM [rising, single point]
Cc1ncn(C23CC4CC(CC(C4)C2)C3)n1 | -12.8% | 65.1 nM [falling, full curve, poor fit] | 65.1 nM [falling, full curve, poor fit]
CCN1CCN(c2ccc(S(=O)(=O)N3CCOCC3)cc2NC(=O)c2ccc(C)c(C)c2)CC1 | 37.3% | 6510 nM [rising, partial curve, poor fit] | 820 nM [rising, full curve, poor fit]
Brc1ccc(N/N=C(/N=Nc2nn[nH]n2)c2ccccc2)cc1 | 5.81% | – | 65.1 nM [rising, single point]
CSc1cccc(NC(=O)c2cccc3cccnc23)c1 | 9.68% | – | 2310 nM [falling, partial curve, poor fit]
CC(C)n1cnc2c(=S)nc[nH]c21 | 12.8% | 4110 nM [falling, single point] | 259 nM [rising, full curve]
COc1cccc(N2CCN(C(=O)Nc3ccccc3Cl)CC2)c1 | – | 259 nM [rising, full curve] | 231 nM [rising, full curve, poor fit]
Cc1ccc(-n2cc(-c3ccccc3)c3c(=O)[nH]cnc32)cc1 | 24.4% | – | 18400 nM [rising, single point]
Cn1c(=O)c2ccccc2n(CC(=O)NC2CCCCC2)c1=O | 15.4% | – | 58 nM [rising, full curve]
CCc1cc(=O)[nH]c(SCc2cccc3ccccc23)n1 | – | – | 29100 nM [rising, single point]
CCn1nc(C)cc1C(=O)N1CCCC(N2CCN(c3cccc(Cl)c3)CC2)C1 (configuration not stated) | -3.18% | – | –

Of the compounds above, two have bromine:
Structure (SMILES) | cell number change | AC50 [1] | AC50 [2]
O=C(NNC(=O)c1cc(Br)c(Br)s1)c1ccncc1 | 6.36% | – | 1300 nM [rising, partial curve, poor fit]
Brc1ccc(N/N=C(/N=Nc2nn[nH]n2)c2ccccc2)cc1 | 5.81% | – | 65.1 nM [rising, single point]
